Laboratory results as given in publication PMC7279231, “Synthesis, Spectroscopy, Light Stability, Single-Crystal Analysis, and In Vitro Cytotoxic Activity on HepG2 Liver Cancer of Two Novel Silver(I) Complexes of Miconazole” (International Journal of Molecular Sciences, 2020).

Assays:
HepG2 cells [1] = test: MTT assay (mitochondrial activity), HepG2; type: cell-based; details: Homo sapiens, 72 h exposure, mean (n = 3) ± SD
Procedure: (§1) The human hepatoma cell line (HepG2) was purchased from the American Type Culture Collection (ATCC HB-8065). These cells were cultured in Minimum Essential Medium Eagle (MEME) (ATCC). The murine fibroblast cell line (Balb/c 3T3 clone A31) was purchased from the American Type Culture Collection (ATCC CCL-163), and the cells were cultured in Dulbecco’s Modified Eagle’s Medium (DMEM) (ATCC). The media were supplemented with 10% BCS (Balb/c 3T3), 10% FBS (HepG2), 1% L-glutamine, and 1% antibiotic solution. The cells were maintained in 75-cm^2 cell culture flasks (NUNC, Roskilde, Denmark) in a humidified incubator, NuAire (Plymouth, MN, USA) at 37 °C and 5% CO2. The medium was refreshed every two days and the cells were trypsinized by 0.25% trypsin–0.02% EDTA after reaching 70–80% confluence. […]
(§2) As a control, cultured cells were grown in the absence of the studied compounds. […] Cytotoxicity was assessed after 72 h of cell exposure to the compounds in darkness. […]
(§3) MTT assay. The metabolic activity of living cells was assessed by the measurement of the activity of dehydrogenases. […] The plate was shaken for 15 min at room temperature and transferred to a microplate reader (Synergy HTX multi-mode reader (BioTek® Instruments Inc., Winooski, VT, USA)) to measure the absorbance at 570 nm, using a blank as a reference. Cytotoxicity was expressed as a percentage of the negative control (0.1% DMSO). […]

HepG2 cells [2] = test: NRU assay (lysosomal activity), HepG2; type: cell-based; details: Homo sapiens, 72 h exposure, mean (n = 3) ± SD
Procedure: as §1, §2
(§4) NRU assay. This method is based on staining living cells with neutral red which readily diffuses through the plasma membrane and accumulates in lysosomes. […] After 10 min of shaking, the absorbance of the dissolved NR was measured using a Synergy HTX multi-mode reader (BioTek® Instruments Inc., Winooski, VT, USA) at 540 nm using a blank as a reference. Cytotoxicity was expressed as a percentage of the negative control (0.1% DMSO). […]

HepG2 cells [3] = test: TPC assay (total protein content), HepG2; type: cell-based; details: Homo sapiens, 72 h exposure, mean (n = 3) ± SD
Procedure: as §1, §2
(§5) TPC assay. […] The absorbance was measured at 595 nm in a microplate reader (Synergy HTX multi-mode reader (BioTek® Instruments Inc., Winooski, VT, USA)) using a blank as a reference. Cytotoxicity was expressed as a percentage of the negative control (0.1% DMSO). […]

HepG2 cells [4] = test: LDH leakage assay (cellular membrane integrity), HepG2; type: cell-based; details: Homo sapiens, 72 h exposure, mean (n = 3) ± SD
Procedure: as §1, §2
(§6) LDH leakage assay. The integrity of the plasma membrane was assessed through the test of lactate dehydrogenase (LDH) release, which was monitored using the commercially available Cytotoxicity Detection Kit (LDH) (Roche Diagnostics, Warsaw, Poland). […] The absorbance was measured at 492 nm in a microplate reader (Synergy HTX multi-mode reader (BioTek® Instruments Inc., Winooski, VT, USA)) using a blank as a reference. […]

Balb/c 3T3 fibroblasts [5] = test: MTT assay (mitochondrial activity), Balb/c 3T3; type: cell-based, murine; details: Mus musculus, BALB/c3T3; Balb/c 3T3, MTT, 72 h exposure, mean (n = 3) ± SD
Procedure: as §1, §2, §3

Balb/c 3T3 fibroblasts [6] = test: NRU assay (lysosomal activity), Balb/c 3T3; type: cell-based, murine; details: Mus musculus, BALB/c3T3; Balb/c 3T3, NRU, 72 h exposure, mean (n = 3) ± SD
Procedure: as §1, §2, §4

Balb/c 3T3 fibroblasts [7] = test: TPC assay (total protein content), Balb/c 3T3; type: cell-based, murine; details: Mus musculus, BALB/c3T3; Balb/c 3T3, TPC, 72 h exposure, mean (n = 3) ± SD
Procedure: as §1, §2, §5

Balb/c 3T3 fibroblasts [8] = test: LDH leakage assay (cellular membrane integrity), Balb/c 3T3; type: cell-based, murine; details: Mus musculus, BALB/c3T3; Balb/c 3T3, LDH, 72 h exposure, mean (n = 3) ± SD
Procedure: as §1, §2, §6

- IC50 (HepG2 cells [1]): > 1 µM
- IC50 (HepG2 cells [2]): > 1 µM
- IC50 (HepG2 cells [3]): > 1 µM
- IC50 (HepG2 cells [4]): > 1 µM
Compound: Clc1ccc(COC(Cn2ccnc2)c2ccc(Cl)cc2Cl)c(Cl)c1 (stereo not shown) [Miconazole, 1-[2-(2,4-dichlorobenzyloxy)-2-(2,4-dichlorophenyl)ethyl]-1H-imidazole]
- IC20 (HepG2 cells [1]): > 1 µM
- IC20 (HepG2 cells [2]): > 1 µM
- IC20 (HepG2 cells [3]): > 1 µM
- IC20 (HepG2 cells [4]): > 1 µM
- IC20 (Balb/c 3T3 fibroblasts [5]): > 1 µM
- IC50 (Balb/c 3T3 fibroblasts [5]): > 1 µM
- IC20 (Balb/c 3T3 fibroblasts [6]): > 1 µM
- IC50 (Balb/c 3T3 fibroblasts [6]): > 1 µM
- IC20 (Balb/c 3T3 fibroblasts [7]): > 1 µM
- IC50 (Balb/c 3T3 fibroblasts [7]): > 1 µM
- IC20 (Balb/c 3T3 fibroblasts [8]): > 1 µM
- IC50 (Balb/c 3T3 fibroblasts [8]): > 1 µM
